No constants are given. Whether binding was seen depends on the method and setting.
Biological target: HopA1 from Pseudomonas syringae pv. syringae strain 61 (HopA1_(Pss61)), in pDEST32 (Pseudomonas syringae pv. syringae strain 61)
Assay: two-hybrid; pDEST32-hopA1_(Pss61) and pDEST22-RPS6 transformed together into yeast strain PJ69-4A; SD media (-Trp-Leu, -Trp-Leu-His), 30 °C, examined 4 days later

B1: … TO PSEUDOMONAS SYRINGAE6 (RPS6, At5g46470), CDS in pDEST22 (protein, UniProt F4KHH8 1-1127)
chain: MASSSSSSSRNWSYHVFPSFSGEDVRNTFLSHFLKELDRKLIISFKDNEIERSQSLDPELKHGIRNSRIAVVVFSKTYASSSWCLNELLEIVKCKKEFGQLVIPIFYNLDPSHVRKQTGDFGKIFEKTCRNKTVDEKIRWKEALTDVANILGYHIVTWDNEASMIEEIANDILGKMNISPSNDFEDLVGIEDHITKMSSLLHLESEEVRMVGIWGPSGIGKTTIARALFSRLSCQFQSSVFIDKVFISKSMEVYSGANLVDYNMKLHLQRAFLAEIFDKKDIKIHVGAMEKMVKHRKALIVIDDLDDQDVLDALADQTQWFGSGSRIIVVTENKHFLRANRIDHIYKVCLPSNALALEMFCRSAFKKNSPPDDFLELSSEVALRAGNLPLGLNVLGSNLRGINKGYWIDMLPRLQGLDGKIGKTLRVSYDGLNNRKDEAIFRHIACIFNGEKVSDIKLLLANSNLDVNIGLKNLVDRSLICERFNTLEMHSLLQELGKEIVRTQSNQPGEREFLVDLKDICDVLEHNTGTKKVLGITLDIDETDELHIHESSFKGMHNLLFLKIYTKKLDQKKKVRWHLPERFDYLPSRLRLLRFDRYPSKCLPSNFHPENLVKLQMQQSKLEKLWDGVHSLAGLRNMDLRGSRNLKEIPDLSMATNLETLKLSSCSSLVELPSSIQYLNKLNDLDMSYCDHLETIPSGVNLKSLDRLNLSGCSRLKSFLDIPTNISWLDIGQTADIPSNLRLQNLDELILCERVQLRTPLMTMLSPTLTRLTFSNNPSFVEVPSSIQNLYQLEHLEIMNCRNLVTLPTGINLDSLISLDLSHCSQLKTFPDISTNISDLNLSYTAIEEVPLSIEKLSLLCYLDMNGCSNLLCVSPNISKLKHLERADFSDCVELTEASWNGSSSEMVKLLPADNFSTVKLNFINCFKLDLTALIQNQTFFMQLILTGEEVPSYFTHRTSGDSISLPHISVCQSFFSFRGCTVIDVDSFSTISVSFDIEVCCRFIDRFGNHFDSTDFPGYFITTKLGGHLVVFDCYFPFNEEFTTFLDGQFNYDHVDIQFRLTNDNSQLKLKGCGILLSEDVPSLDNRPCSPNILPGVCEDSALERRSFRTKMRMMRMRLLKKLLNR
- binding: no binding
